Experimental data: patent publication US20240247058A1 (published 2024)
These are yes or no findings as the source states them, for the method shown. Some entries that bind do so weakly or less than the wild type.

Target: T1, Mouse TNFα (mouse, UniProt P06804 80-235)
T1 sequence (looked up): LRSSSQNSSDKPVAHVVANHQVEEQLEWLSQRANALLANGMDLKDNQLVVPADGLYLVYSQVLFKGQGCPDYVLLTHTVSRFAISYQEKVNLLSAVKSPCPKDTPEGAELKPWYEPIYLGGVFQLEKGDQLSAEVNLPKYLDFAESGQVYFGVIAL
Assay: cross-reactivity binding profile against human and mouse TNF-alpha (FIGS. 39A-C; text cites FIG. 31)

binding: binds
B1: TNF S17-Quad-X™ with (Gly4Ser)5 (Fc fusion)
chain: ASVNQTPRTATKETGESLTINCVLTDTHAKVFTTSWFRKNPGTTDWERMSIGGRYVESVNKGAKSFSLRIKDLTVADSATYICRAGGYLSQPRVYWDVYGAGTVLTVNGGGGSGGGGRTEPRGPTIKPCPPCKCPAPNLLGGPSVFIFPPKIKDVLMISLSPIVTCVVVDVSEDDPDVQISWFVNNVEVHTAQTQTHREDYNSTLRVVSALPIQHQDWMSGKEFKCKVNNKDLPAPIERTISKPKGSVRAPQVYVLPPPEEEMTKKQVTLTCMVTDFMPEDIYVEWTNNGKTELNYKNTEPVLDSDGSYFMYSKLRVEKKNWVERNSYSCSVVHEGLHNHHTTKSFSRTPGKGGGGSGGGGSGGGGSGGGGSGAHSASVNQTPRTATKETGESLTINCVLTDTHAKVFTTSWFRKNPGTTDWERMSIGGRYVESVNKGAKSFSLRIKDLTVADSATYICRAGGYLSQPRVYWDVYGAGTVLTVN
